This assay addresses T1, SidC, purified L. pneumophila effector (negative control) (L. pneumophila) (UniProt Q6RCR4).
T1 sequence: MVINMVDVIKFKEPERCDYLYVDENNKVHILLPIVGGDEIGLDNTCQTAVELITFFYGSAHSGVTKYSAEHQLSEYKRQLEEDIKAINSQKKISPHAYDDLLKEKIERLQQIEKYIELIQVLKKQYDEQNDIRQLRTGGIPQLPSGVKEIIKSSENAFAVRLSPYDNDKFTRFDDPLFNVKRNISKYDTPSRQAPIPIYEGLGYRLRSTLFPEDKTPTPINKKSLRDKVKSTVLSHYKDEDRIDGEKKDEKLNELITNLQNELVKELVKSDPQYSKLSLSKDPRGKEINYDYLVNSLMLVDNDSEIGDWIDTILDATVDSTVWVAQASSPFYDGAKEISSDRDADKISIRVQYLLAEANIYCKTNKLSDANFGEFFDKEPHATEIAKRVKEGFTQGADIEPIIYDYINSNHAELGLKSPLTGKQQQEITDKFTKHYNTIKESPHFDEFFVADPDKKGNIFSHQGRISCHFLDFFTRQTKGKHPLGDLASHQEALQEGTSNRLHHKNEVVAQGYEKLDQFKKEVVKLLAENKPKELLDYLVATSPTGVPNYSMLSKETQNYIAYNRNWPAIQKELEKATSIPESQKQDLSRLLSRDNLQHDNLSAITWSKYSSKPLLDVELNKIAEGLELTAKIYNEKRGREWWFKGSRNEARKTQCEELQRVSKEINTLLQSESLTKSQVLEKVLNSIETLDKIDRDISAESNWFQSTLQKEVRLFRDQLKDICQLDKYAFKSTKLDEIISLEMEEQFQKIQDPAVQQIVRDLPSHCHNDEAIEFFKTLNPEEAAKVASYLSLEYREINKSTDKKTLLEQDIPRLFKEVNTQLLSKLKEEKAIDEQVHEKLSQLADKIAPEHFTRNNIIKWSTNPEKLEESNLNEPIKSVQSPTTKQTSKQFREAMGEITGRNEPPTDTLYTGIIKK
Kind of assay: affinity purification with mass spectrometry; only the target purified.

Amino acid sequences for entries named in this document (tags omitted).
UniProt O00429: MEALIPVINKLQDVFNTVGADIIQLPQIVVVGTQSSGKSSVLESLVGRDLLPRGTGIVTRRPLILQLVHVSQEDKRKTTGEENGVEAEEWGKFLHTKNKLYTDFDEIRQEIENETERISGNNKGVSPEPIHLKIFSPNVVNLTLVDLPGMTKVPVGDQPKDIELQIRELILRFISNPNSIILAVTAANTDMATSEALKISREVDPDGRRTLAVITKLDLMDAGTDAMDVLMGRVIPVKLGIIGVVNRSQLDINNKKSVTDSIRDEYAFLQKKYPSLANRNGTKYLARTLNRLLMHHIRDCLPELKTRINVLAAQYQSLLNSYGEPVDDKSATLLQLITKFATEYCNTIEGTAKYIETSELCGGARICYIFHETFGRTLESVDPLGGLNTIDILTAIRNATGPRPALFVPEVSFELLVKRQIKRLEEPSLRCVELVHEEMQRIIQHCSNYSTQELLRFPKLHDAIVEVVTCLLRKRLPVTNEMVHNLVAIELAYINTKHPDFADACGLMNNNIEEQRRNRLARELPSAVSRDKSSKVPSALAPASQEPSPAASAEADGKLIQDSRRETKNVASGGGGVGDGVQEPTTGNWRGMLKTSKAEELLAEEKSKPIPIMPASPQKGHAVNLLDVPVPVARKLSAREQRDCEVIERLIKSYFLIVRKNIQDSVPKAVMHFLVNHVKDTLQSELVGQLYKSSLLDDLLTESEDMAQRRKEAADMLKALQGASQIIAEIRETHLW

No constants are given. Whether binding was seen depends on the method and setting. In cells and extracts the contact can be indirect. A yes stands for co-enrichment or nearness to the bait. Other partners may have been found. No binding means not detected with the bait.

For “dynamin-related protein 1 (Drp1), endogenous in HeLa cell lysate (from UniProt O00429 1-736) (enzyme)”, the binding result was “no binding”.

The values above are taken from article PMC13354802.
